Results are given in words; binding and its absence hold for the method and conditions named. In cells and extracts the contact can be indirect. A yes stands for co-enrichment or nearness to the bait. Other partners may have been found.
B1: CCT7, endogenous in S2 cells (protein, UniProt Q9VHL2 1-544)
chain: MQPQIVLLKEGTDSSQGKPQLVSNINACQSIVDAVRTTLGPRGMDKLIVDAHGKATISNDGATIMKLLEIIHPAAKTLVDIAKSQDAEVGDGTTSVVLLAGEFLKQVKPFVEEGVHPRVIIKAIRKALQLCMEKINEMAVQIVEQSKDQQRALLEKCAATAMSSKLIHQQKDFFSRIVVDAVLSLDELLPLNMIGIKKVTGGSLEESQLVSGVAFKKTFSYAGFEMAPKSYDNCKIALLNIELELKAERDNAEIRVDNVKEYQKVVDAEWQILYNKLAKIHESGANVVLSKLPIGDVATQYFADRDIFCAGRVPEEDLKRTMKACGGAVMTTANDIKPNVLGLCEHFEERQVGGERFNLFQGCPNAKTSTLILRGGAEQFLEETERSLHDAIMIVRRTIKHDSVVAGGGAIEMELSKLLRDYSRTIAGKEQLLIAAIAKGLEIIPRQLCDNAGFDATNILNKLRQKHAQGGQWYGVDINKEDISDNYEQCVWEPSIIKINALTAAAEAACMILSVDETIKSPKAGEPPMAGGGMGMGRGMGRPM
B2: CG4364, endogenous in S2 cells (protein, UniProt Q9VL96 1-627)
chain: MRRPKKYESGEATQYISRRAALRKLQLSLNDFRRLCILKGVYPREPKHRRRAQKGSSEIKVLYHTKDIRFLLHESIVWTLRDYKIFAKKSNRDRAIKDFRNLKRRLALFPEIKLDHIVKERYPTFIDALKDLDDCLTLLFLFSTFPSLHLIPREQSNLCRRLTIEFLHYVIASKSLRKVFISIKGYYFQAEIKGQKVTWIVPHYYPFKPQSRQEVDFKVMSIFVEFYTIMLGFTNFRLFHGLNLAYPPQFPSSVLQDSEESLKDEASFVSDRIAALNFELLRTDKVQEDEEELDIDMELLEQDGDSKRIIKMKQEAQEVSRLRTLFKGLKFFINREVPREPLVILIRSFGGKVSWDSSIFAGSTYDEGDETITHQIVDRPSITTQYISRDYIQPQWVFDCVNQRQLLPTNKYFIGETLPPHLSPFVDSKRDSYIPPEEKALLDPSLIETHAQSDDDSEDEAQEEEETVDQELLDAQLQLAYQQETAEYKKYGGPDGVNEDEEDPDDEDDNEDDDEEEEELDEKTKRLQEEKQKMSVQSGKVHKVNKRQVHKAEVDEHRLQARMVKPRHRNLFRKLIREKQTKEKEEWLLRKKRRTIEANEKEARKTAKREARKEAAAAAAKASKLGK
B3: HSP26, endogenous in S2 cells (protein, UniProt P02517 1-208)
chain: MSLSTLLSLVDELQEPRSPIYELGLGLHPHSRYVLPLGTQQRRSINGCPCASPICPSSPAGQVLALRREMANRNDIHWPATAHVGKDGFQVCMDVAQFKPSELNVKVVDDSILVEGKHEERQDDHGHIMRHFVRRYKVPDGYKAEQVVSQLSSDGVLTVSIPKPQAVEDKSKERIIQIQQVGPAHLNVKANESEVKGKENGAPNGKDK
B4: CCT2, endogenous in S2 cells (protein, UniProt Q9W392 1-535)
chain: MEMSLNPVRVLKNEAQEEKAEMARLSSFIGAIAIGDLVKSTLGPKGMDKILVATGRNAGHVEVTNDGATILRAVGVDNPAAKILVDMSRVQDEEVGDGTTSVTVLASELLREAEKLVEQKLHPQIIVSGWRQATQVALEALTAAAQDNSSSDEKFRNDLLNIARTTLSSKILHQHKDFFANLAVDAVMRLKGSGELKSIQIIKKSGGTLGDSFLDEGFLLDKKPGVHQPQRIENARILIANTPMDTDKIKVFGSSIKVDSLAKIADLEMAEKEKMKEKVDKILKHKCNVFINRQLIYNYPEQLFADARVMSIEHADFDGIERLAYCTGGEIVSTFENPSLVKLGECDVIEQVMIGEDTLLRFSGVKLGEACTIVIRGATQQILDEADRSLHDALCVLAATVKESRIIFGGGCSEALMATAVLKKAAETPGKEAIAIEAFARALLSLPTAIADNAGYDSAQLVSELRAGHAQGKQTLGLDMELGKVADVRELGITESFAVKRQVLMSASEAAEMILRVDNIIRCAPRRRVPDRGYC

target: HA-EGFP-NtFT4 (tobacco (Nicotiana tabacum)); experiment: affinity purification with mass spectrometry; HA-EGFP-NtFT4 precipitated with magnetic anti-HA beads from combined cytosolic and nuclear extracts of transiently transfected S2 cells, acidic elution, LC-MS/MS of eluates and gel bands; HA-EGFP as reference

binding, binds:
B1
B2
B3
B4

Source: publication PMC9037272
